Results are given in words; binding and its absence hold for the method and conditions named. In cells and extracts the contact can be indirect. Some results given as binding are weak or reduced against the parent protein; the word gives no strength. Tags and fused reporters may be left off the sequences shown.
What was measured:
myc-MICAL1 (human) [1] = target: T1, myc-MICAL1 (human) (UniProt Q8TDZ2); experiment: co-IP; transfected 293T, IP with α-myc antibody and Protein G Sepharose; 20 mM Hepes pH 7.4, 150 mM NaCl, 2 mM EDTA, 1% IGEPAL CA-630; Western blot
T1 sequence: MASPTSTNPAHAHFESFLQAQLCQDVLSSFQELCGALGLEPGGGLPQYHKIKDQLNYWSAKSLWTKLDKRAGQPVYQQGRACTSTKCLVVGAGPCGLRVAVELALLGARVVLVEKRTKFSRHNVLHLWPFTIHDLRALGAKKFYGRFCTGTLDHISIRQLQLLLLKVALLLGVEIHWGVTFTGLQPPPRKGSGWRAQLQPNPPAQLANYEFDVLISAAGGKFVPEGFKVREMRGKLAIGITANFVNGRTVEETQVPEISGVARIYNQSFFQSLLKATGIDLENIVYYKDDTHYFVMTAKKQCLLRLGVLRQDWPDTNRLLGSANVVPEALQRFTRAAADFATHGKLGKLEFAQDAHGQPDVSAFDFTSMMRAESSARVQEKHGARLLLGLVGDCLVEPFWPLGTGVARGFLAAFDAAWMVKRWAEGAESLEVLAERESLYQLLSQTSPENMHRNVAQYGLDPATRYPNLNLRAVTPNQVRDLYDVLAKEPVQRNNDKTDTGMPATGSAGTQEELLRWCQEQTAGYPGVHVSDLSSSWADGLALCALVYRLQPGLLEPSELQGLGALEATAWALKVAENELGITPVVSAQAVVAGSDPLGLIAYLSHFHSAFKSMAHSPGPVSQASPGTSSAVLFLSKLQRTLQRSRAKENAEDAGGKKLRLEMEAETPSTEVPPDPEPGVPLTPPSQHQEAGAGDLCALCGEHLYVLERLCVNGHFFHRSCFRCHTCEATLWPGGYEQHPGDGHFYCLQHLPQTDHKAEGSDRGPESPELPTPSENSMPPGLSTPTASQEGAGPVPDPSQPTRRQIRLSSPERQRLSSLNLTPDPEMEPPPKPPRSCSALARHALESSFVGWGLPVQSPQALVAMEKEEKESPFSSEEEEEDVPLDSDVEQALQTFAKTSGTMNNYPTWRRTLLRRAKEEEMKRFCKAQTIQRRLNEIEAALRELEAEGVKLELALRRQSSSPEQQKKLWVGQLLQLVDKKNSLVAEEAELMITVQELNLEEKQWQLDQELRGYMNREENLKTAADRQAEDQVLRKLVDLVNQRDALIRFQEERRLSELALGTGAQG

Chains of the proteins cited; added tags and fusions are not shown.
UniProt P61026: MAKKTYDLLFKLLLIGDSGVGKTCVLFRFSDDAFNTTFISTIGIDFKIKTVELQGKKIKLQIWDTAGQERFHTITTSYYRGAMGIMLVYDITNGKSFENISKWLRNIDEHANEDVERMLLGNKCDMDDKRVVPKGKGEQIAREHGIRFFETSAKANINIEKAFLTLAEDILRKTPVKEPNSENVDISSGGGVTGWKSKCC
UniProt P62491: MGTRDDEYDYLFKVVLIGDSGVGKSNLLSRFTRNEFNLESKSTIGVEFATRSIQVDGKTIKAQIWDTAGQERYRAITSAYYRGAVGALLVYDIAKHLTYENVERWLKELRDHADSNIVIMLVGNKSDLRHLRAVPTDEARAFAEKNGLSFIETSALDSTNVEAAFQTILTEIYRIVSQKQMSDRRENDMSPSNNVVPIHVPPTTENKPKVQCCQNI
UniProt P61007: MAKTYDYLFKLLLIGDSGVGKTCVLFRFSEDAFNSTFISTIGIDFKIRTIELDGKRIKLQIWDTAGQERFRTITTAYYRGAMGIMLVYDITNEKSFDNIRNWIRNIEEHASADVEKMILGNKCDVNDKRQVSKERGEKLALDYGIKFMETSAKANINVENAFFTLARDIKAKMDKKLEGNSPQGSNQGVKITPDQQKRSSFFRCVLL
UniProt Q92930: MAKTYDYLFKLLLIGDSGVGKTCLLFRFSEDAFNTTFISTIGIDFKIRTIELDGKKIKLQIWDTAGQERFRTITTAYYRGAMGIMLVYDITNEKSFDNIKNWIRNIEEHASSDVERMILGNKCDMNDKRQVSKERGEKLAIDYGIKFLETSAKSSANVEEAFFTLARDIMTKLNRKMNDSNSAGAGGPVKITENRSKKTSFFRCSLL

myc–MICAL1 G3W (human) = target: T2, myc–MICAL1 G3W (human) (UniProt Q8TDZ2); experiment: as above
T2 sequence: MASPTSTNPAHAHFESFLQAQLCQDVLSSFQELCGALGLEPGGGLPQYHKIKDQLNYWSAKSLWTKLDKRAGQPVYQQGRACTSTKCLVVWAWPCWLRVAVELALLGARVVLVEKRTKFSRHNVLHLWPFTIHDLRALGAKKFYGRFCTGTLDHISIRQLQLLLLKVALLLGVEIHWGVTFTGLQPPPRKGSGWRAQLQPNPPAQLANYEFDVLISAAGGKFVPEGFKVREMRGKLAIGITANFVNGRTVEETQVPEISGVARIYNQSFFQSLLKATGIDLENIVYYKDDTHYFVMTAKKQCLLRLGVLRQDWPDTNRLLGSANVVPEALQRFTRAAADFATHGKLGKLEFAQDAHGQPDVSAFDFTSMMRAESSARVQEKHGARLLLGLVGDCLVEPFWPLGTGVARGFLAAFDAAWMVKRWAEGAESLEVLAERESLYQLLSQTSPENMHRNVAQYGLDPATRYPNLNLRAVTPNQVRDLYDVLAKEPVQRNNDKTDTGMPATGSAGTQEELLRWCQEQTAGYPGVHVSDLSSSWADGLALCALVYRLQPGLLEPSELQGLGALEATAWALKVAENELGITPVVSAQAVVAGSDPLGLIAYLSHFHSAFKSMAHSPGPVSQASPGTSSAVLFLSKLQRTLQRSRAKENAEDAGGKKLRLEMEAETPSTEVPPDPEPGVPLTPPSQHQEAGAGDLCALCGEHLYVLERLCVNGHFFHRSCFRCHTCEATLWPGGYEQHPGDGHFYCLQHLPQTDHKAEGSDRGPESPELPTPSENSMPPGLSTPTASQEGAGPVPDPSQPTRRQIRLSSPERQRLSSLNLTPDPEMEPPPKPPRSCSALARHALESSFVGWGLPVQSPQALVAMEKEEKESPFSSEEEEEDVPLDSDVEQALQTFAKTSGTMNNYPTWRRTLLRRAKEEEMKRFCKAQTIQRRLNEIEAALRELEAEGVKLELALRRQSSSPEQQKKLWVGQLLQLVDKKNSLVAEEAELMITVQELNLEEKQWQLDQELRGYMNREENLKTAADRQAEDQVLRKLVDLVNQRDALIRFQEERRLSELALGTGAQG

GFP-Rab10 (human) = GFP-Rab10 (human) (UniProt P61026); experiment: co-IP; transfected 293T, IP with α-GFP and Protein G Sepharose; 20 mM Hepes pH 7.4, 150 mM NaCl, 2 mM EDTA, 1% IGEPAL CA-630; Western blot
GFP-Rab11a (human) = GFP-Rab11a (human) (UniProt P62491); experiment: as above
GFP-Rab8a (canine) = GFP-Rab8a (canine) (UniProt P61007); experiment: as above
GFP-Rab8b (human) = GFP-Rab8b (human) (UniProt Q92930); experiment: as above
myc-MICAL1 (human) [2] = target: T1, myc-MICAL1 (human); experiment: co-IP; transfected 293T, IP with α-myc–coated magnetic beads; 20 mM Hepes pH 7.4, 150 mM NaCl, 2 mM EDTA, 1% IGEPAL CA-630; Western blot
myc-MICAL1^Pro (human) = target: T3, myc-MICAL1^Pro (human) (UniProt Q8TDZ2); experiment: as above
T3 sequence: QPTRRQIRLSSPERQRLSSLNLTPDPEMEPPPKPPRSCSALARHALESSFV

myc-MICAL1^tail (human) = target: T4, myc-MICAL1^tail (human) (UniProt Q8TDZ2); experiment: as above
T4 sequence: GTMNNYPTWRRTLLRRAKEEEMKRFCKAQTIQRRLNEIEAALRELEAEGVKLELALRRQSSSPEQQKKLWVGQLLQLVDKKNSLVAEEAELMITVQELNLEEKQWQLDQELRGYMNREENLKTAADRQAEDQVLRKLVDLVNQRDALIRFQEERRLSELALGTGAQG

Molecule | binding (myc-MICAL1 (human) [1]) | binding (myc–MICAL1 G3W (human)) | binding (GFP-Rab10 (human)) | binding (GFP-Rab11a (human)) | binding (GFP-Rab8a (canine)) | binding (GFP-Rab8b (human)) | binding (myc-MICAL1 (human) [2]) | binding (myc-MICAL1^Pro (human)) | binding (myc-MICAL1^tail (human))
GFP-Rab10 (from UniProt P61026 1-200) | binds | binds |  |  |  |  |  |  | 
untagged MICAL1 (protein, UniProt Q8TDZ2 1-1067) MASPTSTNPAHAHFESFLQAQLCQDVLSSFQELCGALGLEPGGGLPQYHKIKDQLNYWSAKSLWTKLDKRAGQPVYQQGRACTSTKCLVVGAGPCGLRVAVELALLGARVVLVEKRTKFSRHNVLHLWPFTIHDLRALGAKKFYGRFCTGTLDHISIRQLQLLLLKVALLLGVEIHWGVTFTGLQPPPRKGSGWRAQLQPNPPAQLANYEFDVLISAAGGKFVPEGFKVREMRGKLAIGITANFVNGRTVEETQVPEISGVARIYNQSFFQSLLKATGIDLENIVYYKDDTHYFVMTAKKQCLLRLGVLRQDWPDTNRLLGSANVVPEALQRFTRAAADFATHGKLGKLEFAQDAHGQPDVSAFDFTSMMRAESSARVQEKHGARLLLGLVGDCLVEPFWPLGTGVARGFLAAFDAAWMVKRWAEGAESLEVLAERESLYQLLSQTSPENMHRNVAQYGLDPATRYPNLNLRAVTPNQVRDLYDVLAKEPVQRNNDKTDTGMPATGSAGTQEELLRWCQEQTAGYPGVHVSDLSSSWADGLALCALVYRLQPGLLEPSELQGLGALEATAWALKVAENELGITPVVSAQAVVAGSDPLGLIAYLSHFHSAFKSMAHSPGPVSQASPGTSSAVLFLSKLQRTLQRSRAKENAEDAGGKKLRLEMEAETPSTEVPPDPEPGVPLTPPSQHQEAGAGDLCALCGEHLYVLERLCVNGHFFHRSCFRCHTCEATLWPGGYEQHPGDGHFYCLQHLPQTDHKAEGSDRGPESPELPTPSENSMPPGLSTPTASQEGAGPVPDPSQPTRRQIRLSSPERQRLSSLNLTPDPEMEPPPKPPRSCSALARHALESSFVGWGLPVQSPQALVAMEKEEKESPFSSEEEEEDVPLDSDVEQALQTFAKTSGTMNNYPTWRRTLLRRAKEEEMKRFCKAQTIQRRLNEIEAALRELEAEGVKLELALRRQSSSPEQQKKLWVGQLLQLVDKKNSLVAEEAELMITVQELNLEEKQWQLDQELRGYMNREENLKTAADRQAEDQVLRKLVDLVNQRDALIRFQEERRLSELALGTGAQG |  |  | binds | no binding | binds | binds |  |  | 
GRAF2-GFP (protein, UniProt A1A4S6 1-786) MGLQPLEFSDCYLDSPWFRERIRAHEAELERTNKFIKELIKDGKNLIAATKSLSVAQRKFAHSLRDFKFEFIGDAVTDDERCIDASLREFSNFLKNLEEQREIMALSVTETLIKPLEKFRKEQLGAVKEEKKKFDKETEKNYSLIDKHLNLSAKKKDSHLQEADIQVEQNRQHFYELSLEYVCKLQEIQERKKFEFVEPMLSFFQGMFTFYHQGHELAKDFNHYKMELQINIQNTRNRFEGTRSEVEELMNKIRQNPKDHKRASQFTAEGYLYVQEKRPAPFGSSWVKHYCMYRKAAKKFNMIPFEHRSGGKLGDGEVFFLKECTKRHTDSIDRRFCFDIEAADRPGVSLTMQAFSEEERKQWLEALGGKEALSHSFNTAIIPRPEGNAQLDKMGFTIIRKCISAVETRGINDQGLYRVVGVSSKVQRLLSMLMDVKTCNEVDLENSADWEVKTITSALKQYLRSLPEPLMTYELHGDFIVPAKSGSPESRVNAIHFLVHKLPEKNKEMLDILVKHLTNVSNHSKQNLMTVANLGVVFGPTLMRPQEETVAALMDLKFQNIVVEILIENHEKIFRTPPDTTFPEPTCLSASPPNAPPRQSKRQGQRTKRPVAVYNLCLELEDGDNPYPSKEDTPTSSLDSLSSPSPVTTAVPGPPGPDKNHLLADGGSFGDWASTIPGQTRSSMVQWLNPQSPTTTSSNSAVTPLSPGSSPFPFSPPATVADKPPESIRSRKARAVYPCEAEHSSELSFEIGAIFEDVQTSREPGWLEGTLNGKRGLIPQNYVKLL | binds | binds |  |  |  |  | binds | binds | no binding

Source: article PMC7199855, “GRAF2, WDR44, and MICAL1 mediate Rab8/10/11–dependent export of E-cadherin, MMP14, and CFTR ΔF508” (The Journal of Cell Biology, 2020)
